In the supplement of paper PMC4604168 (melanoma cell lines):
Some of the results follow. Repeats are few or missing, and single values can be far off.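 The apoptosis fraction was the count of cleaved-PARP antibody-stained nuclei relative to all DNA-stained nuclei, imaged in 1,536-well plates. Screening doses were set so most cells survived, and baseline and induced cleaved-PARP levels vary greatly across cell lines.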

Assays:
Experiment in all cases: cleaved PARP positive nuclei fraction relative to DMSO control; melanoma cells; higher = more apoptosis
Settings in all cases: library dose: low library concentration; 72 h
CBRC034 = tested on: CBRC034 (line from a melanoma biopsy)
COLO792 = tested on: COLO792
COLO800 = tested on: COLO800
COLO829 = tested on: COLO829
G361 = tested on: G361
IPC-298 = tested on: IPC-298
IST-MEL1 = tested on: IST-MEL1
LB2518-MEL = tested on: LB2518-MEL
LOXIMVI = tested on: LOXIMVI
MEL-HO = tested on: MEL-HO
MZ2-MEL = tested on: MZ2-MEL
MeWo = tested on: MeWo
RPMI7951 = tested on: RPMI7951
RVH-421 = tested on: RVH-421
SkMel28 = tested on: SkMel28
SkMel2 = tested on: SkMel2
SkMel30 = tested on: SkMel30
UACC62 = tested on: UACC62

Compound	cleaved PARP positive nuclei fraction (CBRC034)	cleaved PARP positive nuclei fraction (COLO792)	cleaved PARP positive nuclei fraction (COLO800)	cleaved PARP positive nuclei fraction (COLO829)	cleaved PARP positive nuclei fraction (G361)	cleaved PARP positive nuclei fraction (IPC-298)	cleaved PARP positive nuclei fraction (IST-MEL1)	cleaved PARP positive nuclei fraction (LB2518-MEL)	cleaved PARP positive nuclei fraction (LOXIMVI)	cleaved PARP positive nuclei fraction (MEL-HO)	cleaved PARP positive nuclei fraction (MZ2-MEL)	cleaved PARP positive nuclei fraction (MeWo)	cleaved PARP positive nuclei fraction (RPMI7951)	cleaved PARP positive nuclei fraction (RVH-421)	cleaved PARP positive nuclei fraction (SkMel28)	cleaved PARP positive nuclei fraction (SkMel2)	cleaved PARP positive nuclei fraction (SkMel30)	cleaved PARP positive nuclei fraction (UACC62)
Cc1cc(Nc2cc(N3CCN(C)CC3)nc(Sc3ccc(NC(=O)C4CC4)cc3)n2)n[nH]1 [Tozasertib] + CCN(CC)CCNC(=O)c1c(C)[nH]c(/C=C2\C(=O)Nc3ccc(F)cc32)c1C [sunitinib] (first compound 0.006 µM, partner dose 0.4 µM)	33.3%	110%	85.7%	91.4%	121%	57.7%	181%	110%	119%	75.8%	98.8%	165%	93%	101%	77.6%	18.2%	292%	165%
O=C(/C=C/c1cccnc1)NCCCCC1CCN(C(=O)c2ccccc2)CC1 + Nc1ccn([C@@H]2O[C@H](CO)[C@@H](O)C2(F)F)c(=O)n1 [gemcitabine] (first compound 0.01 µM, partner dose 0.0004 µM)	473%	543%	333%	211%	6440%	286%	109%	613%	16.3%	65.6%	400%	89.6%	120%	181%	28.8%	611%	67.7%	35.9%
COc1cc([C@@H]2c3cc4c(cc3[C@@H](O[C@@H]3O[C@@H]5CO[C@@H](C)O[C@H]5[C@H](O)[C@H]3O)[C@H]3COC(=O)[C@H]23)OCO4)cc(OC)c1O [etoposide] + CCN(CC)CCNC(=O)c1c(C)[nH]c(/C=C2\C(=O)Nc3ccc(F)cc32)c1C [sunitinib] (first compound 0.02 µM, partner dose 0.4 µM)	117%	99.9%	76%	129%	101%	150%	63%	46.5%	174%	26.6%	22.2%	33.6%	168%	65.2%	79.7%	116%	101%	278%
O=C(/C=C/c1cccnc1)NCCCCC1CCN(C(=O)c2ccccc2)CC1 + COCC[n+]1c2c(n(Cc3cnccn3)c1C)C(=O)c1ccccc1C2=O [YM155] (first compound 0.01 µM, partner dose 0.0004 µM)	411%	394%	272%	155%	3800%	155%	82.1%	130%	66%	498%	511%	138%	29.6%	41.6%	200%	1720%	97.2%	55%
O=C(Nc1cc(C(F)(F)F)cc(C(F)(F)F)c1)c1cc(Cl)ccc1O + CS(=O)(=O)c1ccc(C(=O)Nc2ccc(Cl)c(-c3ccccn3)c2)c(Cl)c1 [vismodegib] (first compound 0.016 µM, partner dose 1 µM)	63%	123%	127%	19.9%	82.1%	42.7%	93.6%	107%	118%	92.4%	76.9%	111%	124%	109%	58.8%	38.6%	85.7%	267%
CC[C@]1(O)C[C@H]2CN(CCc3c([nH]c4ccccc34)[C@@](C(=O)OC)(c3cc4c(cc3OC)N(C=O)[C@H]3[C@@](O)(C(=O)OC)[C@H](OC(C)=O)[C@]5(CC)C=CCN6CC[C@]43[C@@H]65)C2)C1 [vincristine] + CC(=O)c1c(C)c2cnc(Nc3ccc(N4CCNCC4)cn3)nc2n(C2CCCC2)c1=O [palbociclib] (first compound 0.0001 µM, partner dose 0.04 µM)	62.1%	77.3%	45.9%	151%	145%	101%	130%	121%	210%	69.4%	52.2%	177%	199%	85.3%	148%	70.7%	150%	419%
N#CC[C@H](C1CCCC1)n1cc(-c2ncnc3[nH]ccc23)cn1 [ruxolitinib] + C=CCNC1=C2C[C@@H](C)C[C@H](OC)[C@H](O)[C@@H](C)/C=C(\C)[C@H](OC(N)=O)[C@@H](OC)/C=C\C=C(/C)C(=O)NC(=CC1=O)C2=O [Tanespimycin] (first compound 1 µM, partner dose 0.002 µM)	73.5%	99.4%	103%	58.1%	183%	112%	130%	93.8%	131%	89.4%	135%	92%	54.7%	86.4%	66.2%	146%	64.9%	48.1%
COc1cc([C@@H]2c3cc4c(cc3[C@@H](O[C@@H]3O[C@@H]5CO[C@@H](C)O[C@H]5[C@H](O)[C@H]3O)[C@H]3COC(=O)[C@H]23)OCO4)cc(OC)c1O [etoposide] + CC(=O)c1c(C)c2cnc(Nc3ccc(N4CCNCC4)cn3)nc2n(C2CCCC2)c1=O [palbociclib] (first compound 0.02 µM, partner dose 0.04 µM)	149%	162%	125%	183%	142%	69.8%	137%	134%	146%	157%	52.2%	33.4%	213%	113%	97.7%	73.7%	43.8%	238%
N#CC[C@H](C1CCCC1)n1cc(-c2ncnc3[nH]ccc23)cn1 [ruxolitinib] + Nc1ncn([C@H]2C[C@H](O)[C@@H](CO)O2)c(=O)n1 [decitabine] (first compound 1 µM, partner dose 0.1 µM)	30.3%	123%	16.5%	158%	180%	114%	127%	107%	172%	119%	103%	93.9%	188%	101%	80.3%	124%	44.2%	45.7%
CCCCCCCCCCCCCCCCCCOP(=O)([O-])OC1CC[N+](C)(C)CC1 [Perifosine] + C[C@]1(c2nc3c(C(N)=O)cccc3[nH]2)CCCN1 [Veliparib] (first compound 0.4 µM, partner dose 1.4 µM)	152%	203%	125%	69.4%	143%	94.1%	127%	148%	164%	277%	85%	121%	308%	90.5%	76.6%	122%	31%	2330%
O=c1[nH]nc(Sc2ncc([N+](=O)[O-])s2)n1-c1ccc2c(c1)OCCO2 + C#Cc1cccc(Nc2ncnc3cc(OCCOC)c(OCCOC)cc23)c1 [erlotinib] (first compound 0.2 µM, partner dose 0.8 µM)	76.3%	184%	81.8%	50.6%	99.7%	46.6%	167%	104%	81.5%	111%	88.3%	46.9%	85.4%	122%	47.4%	129%	64.3%	189%
O=C(Nc1cc(C(F)(F)F)cc(C(F)(F)F)c1)c1cc(Cl)ccc1O + C=CCNC1=C2C[C@@H](C)C[C@H](OC)[C@H](O)[C@@H](C)/C=C(\C)[C@H](OC(N)=O)[C@@H](OC)/C=C\C=C(/C)C(=O)NC(=CC1=O)C2=O [Tanespimycin] (first compound 0.016 µM, partner dose 0.002 µM)	41.9%	113%	152%	200%	106%	113%	65.2%	176%	96.6%	84.3%	84.7%	118%	139%	98.6%	71.6%	117%	65.9%	76.7%
COc1cc([C@@H]2c3cc4c(cc3[C@@H](O[C@@H]3O[C@@H]5CO[C@@H](C)O[C@H]5[C@H](O)[C@H]3O)[C@H]3COC(=O)[C@H]23)OCO4)cc(OC)c1O [etoposide] + C[C@@H](N)c1ccc(C(=O)Nc2ccnc3[nH]ccc23)cc1 [RKI983] (first compound 0.02 µM, partner dose 0.4 µM)	85.3%	134%	150%	106%	72.8%	96.2%	122%	129%	56.2%	139%	85.4%	100%	41.3%	251%	119%	184%	116%	153%
O=C(Nc1cc(C(F)(F)F)cc(C(F)(F)F)c1)c1cc(Cl)ccc1O + O=c1[nH]nc(Sc2ncc([N+](=O)[O-])s2)n1-c1ccc2c(c1)OCCO2 [BI78D3] (first compound 0.016 µM, partner dose 0.2 µM)	43.7%	121%	33.6%	41.8%	84.3%	180%	62.9%	45.8%	57.8%	123%	90.8%	91.3%	148%	82.2%	163%	91.9%	83.6%	162%
CC[C@]1(O)C[C@H]2CN(CCc3c([nH]c4ccccc34)[C@@](C(=O)OC)(c3cc4c(cc3OC)N(C=O)[C@H]3[C@@](O)(C(=O)OC)[C@H](OC(C)=O)[C@]5(CC)C=CCN6CC[C@]43[C@@H]65)C2)C1 [vincristine] + Cc1nc(Nc2ncc(C(=O)Nc3c(C)cccc3Cl)s2)cc(N2CCN(CCO)CC2)n1 [dasatanib] (first compound 0.0001 µM, partner dose 0.004 µM)	95.4%	82.7%	158%	117%	147%	42.8%	77.5%	122%	180%	174%	185%	301%	119%	55.7%	118%	81.5%	169%	295%

An excerpt from above, reduced to cleaved PARP positive nuclei fraction (COLO800) and cleaved PARP positive nuclei fraction (SkMel30).
Compound | cleaved PARP positive nuclei fraction (COLO800) | cleaved PARP positive nuclei fraction (SkMel30)
COc1cc([C@@H]2c3cc4c(cc3[C@@H](O[C@@H]3O[C@@H]5CO[C@@H](C)O[C@H]5[C@H](O)[C@H]3O)[C@H]3COC(=O)[C@H]23)OCO4)cc(OC)c1O [etoposide] + CCN(CC)CCNC(=O)c1c(C)[nH]c(/C=C2\C(=O)Nc3ccc(F)cc32)c1C [sunitinib] (first compound 0.02 µM, partner dose 0.4 µM) | 76% | 101%
O=C(/C=C/c1cccnc1)NCCCCC1CCN(C(=O)c2ccccc2)CC1 + COCC[n+]1c2c(n(Cc3cnccn3)c1C)C(=O)c1ccccc1C2=O [YM155] (first compound 0.01 µM, partner dose 0.0004 µM) | 272% | 97.2%
